From article PMC9203792

Biological target: T1, MFN1, ectopically expressed (UniProt Q8IWA4)
T1 sequence: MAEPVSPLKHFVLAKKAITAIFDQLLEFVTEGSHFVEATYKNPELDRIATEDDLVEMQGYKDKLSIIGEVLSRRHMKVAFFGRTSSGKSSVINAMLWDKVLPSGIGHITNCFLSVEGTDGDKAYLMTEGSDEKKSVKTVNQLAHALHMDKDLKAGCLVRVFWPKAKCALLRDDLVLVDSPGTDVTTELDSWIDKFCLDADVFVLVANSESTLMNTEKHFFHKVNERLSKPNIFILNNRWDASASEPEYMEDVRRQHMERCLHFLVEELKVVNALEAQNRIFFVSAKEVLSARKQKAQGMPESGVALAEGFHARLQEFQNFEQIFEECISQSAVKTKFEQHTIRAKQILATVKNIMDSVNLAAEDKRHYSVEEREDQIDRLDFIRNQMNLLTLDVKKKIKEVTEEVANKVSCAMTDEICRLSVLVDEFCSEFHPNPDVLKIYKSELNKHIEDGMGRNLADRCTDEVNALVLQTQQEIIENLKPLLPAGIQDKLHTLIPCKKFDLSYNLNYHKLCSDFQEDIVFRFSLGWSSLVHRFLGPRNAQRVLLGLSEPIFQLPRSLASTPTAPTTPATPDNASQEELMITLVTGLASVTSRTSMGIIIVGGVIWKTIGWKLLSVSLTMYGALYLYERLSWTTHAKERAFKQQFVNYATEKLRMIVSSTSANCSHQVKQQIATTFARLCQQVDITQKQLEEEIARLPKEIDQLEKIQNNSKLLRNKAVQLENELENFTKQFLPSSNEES
Experiment: co-IP; HEK293T cells transfected with tagged constructs; mild lysis buffer (100 mM NaCl, 1% NP40, 10 mM Tris pH 7.5, 10 mM EDTA), antibody 2 h at 4 °C, protein G-Sepharose; western blotting

With “FUNDC2 N-terminal region alone (domain or fragment)” the binding was “no binding”.
“FUNDC2 C-terminal region alone (domain or fragment)” was tested, and the binding was “no binding”.
“FUNDC2 TM regions alone (domain or fragment)” was tested, and the binding was “no binding”.

These are yes or no findings as the source states them, for the method shown. Binding seen in cells or lysates may run through a third protein.
